The other results are listed elsewhere or left out.
Columns and labels:
Assay in all cases: glycan array binding signal (z-score within array); higher = stronger binding
Settings in all cases: glycan notation: IUPAC condensed, linker removed
[1] = target: Man(a1-2)Man(a1-3)[Man(a1-2)Man(a1-6)]Man(a1-6)[Man(a1-2)Man(a1-2)Man(a1-3)]Man
How it was run: (§1)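 Arrays were curated from the Consortium for Functional Glycomics database, 3228 in total, and kept only where the protein sequence was available. Binding is expressed as a within-array Z-score. This score was averaged across arrays of the same protein sequence at different concentrations or buffers and across linkers, and negative values can be read as non-binding.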

[2] = target: Man(a1-2)Man(a1-3)[Man(a1-2)Man(a1-6)]Man(a1-6)[Man(a1-2)Man(a1-2)Man(a1-3)]Man(b1-4)GlcNAc(b1-4)GlcNAc
How it was run: as §1

[3] = target: Man(a1-2)Man(a1-3)[Man(a1-6)]Man(a1-6)[Man(a1-2)Man(a1-3)]Man(b1-4)GlcNAc(b1-4)GlcNAc
How it was run: as §1

[4] = target: Man(a1-2)Man(a1-6)[Man(a1-3)]Man(a1-6)[Man(a1-2)Man(a1-2)Man(a1-3)]Man
How it was run: as §1

[5] = target: Man(a1-2)Man(a1-6)[Man(a1-3)]Man(a1-6)[Man(a1-2)Man(a1-2)Man(a1-3)]Man(b1-4)GlcNAc(b1-4)GlcNAc
How it was run: as §1

[6] = target: Man(a1-3)[Man(a1-6)]Man
How it was run: as §1

[7] = target: Man(a1-3)[Man(a1-6)]Man(a1-6)[Man(a1-2)Man(a1-3)]Man(b1-4)GlcNAc(b1-4)GlcNAc
How it was run: as §1

[8] = target: Man(a1-3)[Man(a1-6)]Man(a1-6)[Man(a1-3)]Man
How it was run: as §1

[9] = target: Man(a1-3)[Man(a1-6)]Man(a1-6)[Man(a1-3)]Man(b1-4)GlcNAc(b1-4)GlcNAc
How it was run: as §1

[10] = target: Man(a1-3)[Man(a1-6)]Man(b1-4)GlcNAc(b1-4)GlcNAc
How it was run: as §1

[11] = target: Man(a1-3)[Man(a1-6)]Man(b1-4)GlcNAc(b1-4)[Fuc(a1-6)]GlcNAc
How it was run: as §1

[12] = target: Man(a1-6)Man
How it was run: as §1

[13] = target: Man(b1-4)GlcNAc
How it was run: as §1

[14] = target: MurNAc(b1-4)GlcNAc
How it was run: as §1

[15] = target: Neu5Ac(a2-3)Gal
How it was run: as §1

[16] = target: Neu5Ac(a2-3)Gal(b1-3)GalNAc
How it was run: as §1

[17] = target: Neu5Ac(a2-3)Gal(b1-3)GalNAc(b1-3)Gal(a1-4)Gal(b1-4)Glc
How it was run: as §1

[18] = target: Neu5Ac(a2-3)Gal(b1-3)GalNAc(b1-4)[Neu5Ac(a2-3)]Gal(b1-4)Glc
How it was run: as §1

[19] = target: Neu5Ac(a2-3)Gal(b1-3)GalNAc(b1-4)[Neu5Ac(a2-8)Neu5Ac(a2-3)]Gal(b1-4)Glc
How it was run: as §1

[20] = target: Neu5Ac(a2-3)Gal(b1-3)GalNAc6S
How it was run: as §1

[21] = target: Neu5Ac(a2-3)Gal(b1-3)GlcNAc
How it was run: as §1

[22] = target: Neu5Ac(a2-3)Gal(b1-3)GlcNAc(b1-2)Man
How it was run: as §1

[23] = target: Neu5Ac(a2-3)Gal(b1-3)GlcNAc(b1-2)Man(a1-3)[GlcNAc(b1-4)][Neu5Ac(a2-3)Gal(b1-3)GlcNAc(b1-2)Man(a1-6)]Man(b1-4)GlcNAc(b1-4)GlcNAc
How it was run: as §1

[24] = target: Neu5Ac(a2-3)Gal(b1-3)GlcNAc(b1-2)Man(a1-3)[Neu5Ac(a2-3)Gal(b1-3)GlcNAc(b1-2)Man(a1-6)]Man(b1-4)GlcNAc(b1-4)GlcNAc
How it was run: as §1

[25] = target: Neu5Ac(a2-3)Gal(b1-3)GlcNAc(b1-3)Gal(b1-3)GlcNAc
How it was run: as §1

[26] = target: Neu5Ac(a2-3)Gal(b1-3)GlcNAc(b1-3)Gal(b1-4)GlcNAc
How it was run: as §1

[27] = target: Neu5Ac(a2-3)Gal(b1-3)GlcNAc(b1-3)GalNAc
How it was run: as §1

[28] = target: Neu5Ac(a2-3)Gal(b1-3)GlcNAc(b1-4)Gal(b1-4)Glc
How it was run: as §1

[29] = target: Neu5Ac(a2-3)Gal(b1-3)GlcNAc(b1-6)GalNAc
How it was run: as §1

[30] = target: Neu5Ac(a2-3)Gal(b1-3)GlcNAc6S
How it was run: as §1

[31] = target: Neu5Ac(a2-3)Gal(b1-3)[Fuc(a1-4)]GlcNAc
How it was run: as §1

[32] = target: Neu5Ac(a2-3)Gal(b1-3)[Fuc(a1-4)]GlcNAc(b1-3)Gal(b1-3)[Fuc(a1-4)]GlcNAc
How it was run: as §1

[33] = target: Neu5Ac(a2-3)Gal(b1-3)[Fuc(a1-4)]GlcNAc(b1-3)Gal(b1-4)[Fuc(a1-3)]GlcNAc
How it was run: as §1

[34] = target: Neu5Ac(a2-3)Gal(b1-3)[GlcNAc(b1-6)]GalNAc
How it was run: as §1

[35] = target: Neu5Ac(a2-3)Gal(b1-3)[Neu5Ac(a2-6)]GalNAc
How it was run: as §1

[36] = target: Neu5Ac(a2-3)Gal(b1-3)[Neu5Ac(a2-6)]GlcNAc(b1-3)[Fuc(a1-3)[Gal(b1-4)]GlcNAc(b1-6)]Gal(b1-4)Glc
How it was run: as §1

[37] = target: Neu5Ac(a2-3)Gal(b1-3)]Neu5Ac(a2-3)Gal(b1-4)]GlcNAc
How it was run: as §1

B1: Clec18Av1 (Homo sapiens), A5D8T8 (protein)
chain: MLHPETSPGRGHLLAVLLALLGTAWAEVWPPQLQEQAPMAGALNRKESFLLLSLHNRLRSWVQPPAADMRRLDWSDSLAQLAQARAALCGTPTPSLASGLWRTLQVGWNMQLLPAGLVSFVEVVSLWFAEGQRYSHAAGECARNATCTHYTQLVWATSSQLGCGRHLCSAGQAAIEAFVCAYSPRGNWEVNGKTIVPYKKGAWCSLCTASVSGCFKAWDHAGGLCEVPRNPCRMSCQNHGRLNISTCHCHCPPGYTGRYCQVRCSLQCVHGRFREEECSCVCDIGYGGAQCATKVHFPFHTCDLRIDGDCFMVSSEADTYYRARMKCQRKGGVLAQIKSQKVQDILAFYLGRLETTNEVIDSDFETRNFWIGLTYKTAKDSFRWATGEHQAFTSFAFGQPDNHGFGNCVELQASAAFNWNDQRCKTRNRYICQFAQEHISRWGPGS
- glycan array binding signal (z-score) [1]: -0.565
- glycan array binding signal (z-score) [2]: 0.46
- glycan array binding signal (z-score) [3]: 1.03
- glycan array binding signal (z-score) [4]: -0.869
- glycan array binding signal (z-score) [5]: -0.42
- glycan array binding signal (z-score) [6]: -0.551
- glycan array binding signal (z-score) [7]: 0.298
- glycan array binding signal (z-score) [8]: 1.19
- glycan array binding signal (z-score) [9]: 0.055
- glycan array binding signal (z-score) [10]: -0.777
- glycan array binding signal (z-score) [11]: 0.672
- glycan array binding signal (z-score) [12]: 0.038
- glycan array binding signal (z-score) [13]: -0.825
- glycan array binding signal (z-score) [14]: -0.861
- glycan array binding signal (z-score) [15]: -0.849
- glycan array binding signal (z-score) [16]: -0.846
- glycan array binding signal (z-score) [17]: -0.26
- glycan array binding signal (z-score) [18]: 0.146
- glycan array binding signal (z-score) [19]: -0.136
- glycan array binding signal (z-score) [20]: -0.865
- glycan array binding signal (z-score) [21]: -0.459
- glycan array binding signal (z-score) [22]: 0.043
- glycan array binding signal (z-score) [23]: -0.451
- glycan array binding signal (z-score) [24]: -0.558
- glycan array binding signal (z-score) [25]: -0.858
- glycan array binding signal (z-score) [26]: -0.814
- glycan array binding signal (z-score) [27]: -0.601
- glycan array binding signal (z-score) [28]: -0.857
- glycan array binding signal (z-score) [29]: 1.43
- glycan array binding signal (z-score) [30]: -0.859
- glycan array binding signal (z-score) [31]: -0.839
- glycan array binding signal (z-score) [32]: -0.017
- glycan array binding signal (z-score) [33]: -0.49
- glycan array binding signal (z-score) [34]: -0.848
- glycan array binding signal (z-score) [35]: -0.814
- glycan array binding signal (z-score) [36]: -0.12
- glycan array binding signal (z-score) [37]: -0.844
